Some of the results follow. Shown are side measurements of this screen, not its main read-out; they come without a call. Most of these compounds were active or inconclusive in the main read-out, so they are no random draw. Potencies come from curve fits of mixed quality, noted in brackets.
Assay: qHTS Assay for Lipid Storage Modulators in Drosophila S3 Cells;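 for cell number change: cells counted by Cell Tracker Red CMTPX staining in the red channel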
Conditions: BODIPY lipid droplet fluorescence, 18-24 h; for cell number change: measured here: cell count max response, cells fed with added oleic acid
Method in brief: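 Drosophila S3 cells got compounds at several concentrations plus oleic acid (400 uM solution). Laser-scanning cytometry with 488 nm excitation read lipid droplets at 500-530 nm and cells at 575-640 nm. Percent activity was relative to 20 uM Triacsin C.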

[1] = measured here: cell number channel AC50, cells fed with added oleic acid
[2] = measured here: lipid fluorescence (Fed channel) AC50, cells fed with added oleic acid

Structure (SMILES) | AC50 [1] | cell number change [%] | AC50 [2]
CCOC(=O)/C=C/C(=O)Nc1ccc(S(=O)(=O)N2CCCCCC2)cc1 | 0.13 µM [falling, full curve, poor fit] |  | 
O=C(NCCc1ccccc1F)C1CCC(=O)N(Cc2ccccc2F)C1 (stereo not drawn) |  | -2.55 | 29.1 µM [rising, single point]
Cc1ccc(N2C(=O)N(CC(=O)Nc3ccc(C)cc3C)C(=O)C2C)cc1 (stereo not drawn) | 0.092 µM [rising, full curve, poor fit] | 13 | 
COCCNC(=S)N1CCN(c2cccc(C(F)(F)F)c2)CC1 |  | 22.1 | 0.58 µM [falling, full curve]
CC1(C)Cc2cccc(OCC(=O)Nc3cccnc3Cl)c2O1 |  | -4.07 | 0.0651 µM [rising, partial curve, poor fit]
CCC(C)[C@H]1CNCCN1CCc1cc(C(F)(F)F)cc(C(F)(F)F)c1 (stereo partly drawn) | 5.8 µM [falling, full curve] | -46.8 | 0.731 µM [falling, partial curve, poor fit]
C=CCNc1nc(S(=O)Cc2ccc(C)cc2)nc2c1CCCC2 (stereo not drawn) |  | 37.9 | 0.259 µM [rising, partial curve, poor fit]
CCCOC(=O)c1ccc(Oc2c(-c3ccc(O)cc3O)n[nH]c2C)cc1 | 29.1 µM [falling, single point] | -34.2 | 29.1 µM [falling, single point]
O=C1C2CCCN2C(c2cccc(Br)c2)N1c1ccc(F)cc1 (stereo not drawn) |  | -16.4 | 
COC1CCCCC1NS(=O)(=O)c1ccccc1 (stereo not drawn) | 29.1 µM [falling, partial curve] | -106 | 29.1 µM [falling, partial curve]
COC(=O)CSc1nc(N2CCOCC2)c2c(c1C#N)CCCC2 |  | 17 | 5.17 µM [rising, single point]
CCc1cc(/C(Cc2csc(C)n2)=N/O)c(O)cc1O |  | -19.2 | 
COC(=O)/C(=C/c1ccccc1)NC(=O)c1ccco1 |  | 16.8 | 1.3 µM [falling, full curve, poor fit]
CSCC(C)N1CCC(Oc2cccc(C(=O)NCc3ccccn3)c2)CC1 (stereo not drawn) | 2.31 µM [falling, single point] |  | 
O=C(COC(=O)c1cccc(F)c1)NC(=O)NC1CCCC1 | 18.4 µM [falling, partial curve] | -34.3 | 
COc1ccc(-n2c(C)cc(-c3csc(NC(=O)c4ccc(S(=O)(=O)N(C)C)cc4)n3)c2C)cc1 | 1.3 µM [falling, full curve] | -60.9 | 
O=C(O)CNC(=O)CCn1nnc2ccccc2c1=O |  | -36.2 | 
COc1ccc2nnc(-c3ccc(C(F)(F)F)cc3)n2n1 |  | 16 | 0.164 µM [rising, full curve]
CN(Cc1ccccc1)C(=O)c1[nH]cnc1C(=O)Nc1cccc(Cl)c1 | 7.31 µM [falling, single point] | -57.2 | 1.16 µM [rising, partial curve]
O=C(COc1ccccc1)NCCc1cn2ccsc2n1 |  | 15.9 | 2.59 µM [rising, partial curve]

Structure (SMILES) | AC50 [1] | cell number change [%] | AC50 [2]
COCC1CCN(C(=O)c2cc(COc3ccc4ncccc4c3)on2)CC1 | 11.6 µM [falling, partial curve] | -55.1 | 11.6 µM [falling, partial curve]
O=C(CCSc1ccc(Cl)cc1)NC12CC3CC(CC(C3)C1)C2 |  | -27 | 18.4 µM [falling, partial curve]
Cc1nc(NCCc2ccc(O)cc2)c2nnn(Cc3ccccc3)c2n1 | 0.184 µM [rising, full curve, poor fit] | 9.12 | 29.1 µM [falling, single point]
Cc1noc(NS(=O)(=O)c2ccc(NC(=O)C(C)C)cc2)c1C |  | -15.9 | 0.0517 µM [falling, full curve, poor fit]
O=C(OCc1nc2ccccc2s1)C1CCN(S(=O)(=O)c2cccs2)CC1 |  | -8.55 | 
O=C(NCC(c1ccco1)N1CCCC1)c1ccc(Cl)cc1 (stereo not drawn) | 1.84 µM [falling, full curve] | -66.5 | 18.4 µM [falling, partial curve]
CCOC(=O)C1CCCN(C(=O)C2c3ccccc3Oc3ccccc32)C1 (stereo not drawn) | 9.2 µM [rising, partial curve] | 39.9 | 9.2 µM [rising, partial curve]
CCOc1ccc(CCNC(=O)Cn2c(-c3nonc3N)nc3ccccc32)cc1OCC | 20.6 µM [falling, partial curve] | -39.8 | 29.1 µM [falling, single point]
CN1CCN(C(=O)/C(=C\c2cccs2)NC(=O)c2ccco2)CC1 | 29.1 µM [falling, single point] | -65 | 
Cc1cccc(C(C(=O)NC2CCCCC2)N(C(=O)c2csnn2)C2CC2)c1 (stereo not drawn) |  | 10.7 | 0.58 µM [rising, single point]
CC(C)c1ccc(S(=O)(=O)/N=C2/C=C(Sc3ncn[nH]3)C(=O)c3ccccc32)cc1 | 0.651 µM [falling, partial curve, poor fit] | -10.3 | 4.61 µM [falling, partial curve, poor fit]
Cc1ccc(C)c(Nc2c([N+](=O)[O-])ccc3nonc23)c1 |  | -18.1 | 10.3 µM [rising, partial curve]
Cn1c(SCC(=O)N2CCc3ccccc3C2)nnc1-c1cccs1 |  | 1.47 | 29.1 µM [falling, single point]
COc1cccc(C2=CC(=O)CC(C)(C)C2)c1 | 1.46 µM [falling, partial curve] | -20.3 | 1.64 µM [falling, partial curve]
O=C(NCc1cccs1)C1CCCN1C(=O)Nc1ccccc1[N+](=O)[O-] (stereo not drawn) |  | -2.17 | 29.1 µM [rising, single point]
CSCCC(NS(=O)(=O)c1ccc(Cl)cc1)C(=O)OCc1c(Cl)cccc1Cl (stereo not drawn) | 1.64 µM [falling, partial curve] | -66.7 | 
O=C1NC(=O)C2(COC(c3cccc([N+](=O)[O-])c3)OC2)S1 (stereo not drawn) | 0.259 µM [falling, full curve, poor fit] | -7.04 | 0.731 µM [falling, full curve]
COc1ccccc1N1CCN(C(=O)c2cccc(C(=O)N3CCN(c4ccccc4OC)CC3)c2)CC1 |  | 15.5 | 
Cc1cc(/C=N/n2cnnc2)c(C)n1-c1ccc(OCc2ccc(Cl)cc2)cc1 | 23.1 µM [falling, partial curve] | -58 | 29.1 µM [falling, single point]
FC(F)(F)Oc1ccc(NC(=S)Nc2ccccc2N2CCOCC2)cc1 |  | 2.27 | 6.51 µM [rising, single point]

Structure (SMILES) | AC50 [1] | cell number change [%] | AC50 [2]
COc1ccccc1C(=O)NC(=O)COC(=O)c1ccc(Br)o1 |  | 6.02 | 
O=C(CSC(=S)N1CCOCC1)Nc1nc(-c2ccccc2)c(-c2ccccc2)o1 |  | -22.8 | 6.51 µM [falling, partial curve]
COc1c(C(O)CC(C)C)ccc2c1C(=O)OCc1cc(C)cc(O)c1O2 (stereo not drawn) |  | -9 | 0.291 µM [falling, full curve, poor fit]
CC(=O)NC(C)c1ccc(C(=O)CSc2nnc(C3CC3)n2C2CC2)cc1 (stereo not drawn) |  | -2.73 | 3.26 µM [rising, single point]
COc1cc(OC)cc(C(=O)Nc2ccc(Nc3ccccc3)cc2)c1 |  | -3.88 | 29.1 µM [rising, single point]
c1ccc(Cn2nnc3c(N4CCCC4)ncnc32)cc1 |  | -0.34 | 
O=C(Nc1ccccc1)C1=C[C@@H](c2ccccc2)C[C@@H](OCc2ccc(CO)cc2)O1 |  | 26.2 | 29.1 µM [rising, single point]
COc1ccc(-c2nnc(SCC(=O)NC3CCCCC3)n2N)cc1 |  | 2.01 | 
Cc1cc(=O)oc2c3c(ccc12)OC/C3=N/N | 1.03 µM [rising, partial curve] |  | 0.731 µM [rising, single point]
CCOC(=O)N1CCN(C(=O)CN(c2cccc(OC)c2)S(C)(=O)=O)CC1 |  | -7.96 | 0.651 µM [falling, full curve]
Cc1cccnc1Nc1nc(-c2ccc(O)c(O)c2)cs1 | 20.6 µM [falling, single point] | -149 | 
CCN(CC(=O)Nc1cc(Cl)ccc1C)C(=O)COc1ccccc1F |  | -9.04 | 6.51 µM [rising, partial curve, poor fit]
CCC(=O)N1CCN(c2ccccc2NC(=O)c2cccs2)CC1 |  | -13.9 | 29.1 µM [falling, single point]
Cc1cccc(C)c1OCC(O)CNC(C)c1ccccc1 (stereo not drawn) |  |  | 6.51 µM [falling, single point]
Cc1ccc2oc(C(=O)N3CCN(CC(=O)NC(C)C)CC3)c(C)c2c1 |  | 8.39 | 29.1 µM [rising, single point]
Cc1cccc2[nH]c(CN(C)C(=O)C3CCC(=O)N(C4CC4)C3)nc12 (stereo not drawn) |  | 11.8 | 29.1 µM [rising, single point]
CSc1nc2ccccc2n1CC(=O)Nc1cc(C(F)(F)F)ccc1N1CCOCC1 | 2.06 µM [rising, partial curve] |  | 
CC(C)(C)C(=O)Nc1ccc(C(=O)Nc2cccc(Oc3ccc(C(=O)O)c(C(=O)O)c3)c2)cc1 |  | -24.3 | 9.2 µM [rising, partial curve]
CC12CCC(C(=O)NNC(=O)c3ccc(Br)cc3)(OC1=O)C2(C)C (stereo not drawn) |  |  | 29.1 µM [rising, single point]

Retrieved by compound from the entries so far, 5 records:
Structure (SMILES) | AC50 [1] | cell number change [%] | AC50 [2]
CCOC(=O)N1CCN(C(=O)CN(c2cccc(OC)c2)S(C)(=O)=O)CC1 |  | -7.96 | 0.651 µM [falling, full curve]
CC(=O)NC(C)c1ccc(C(=O)CSc2nnc(C3CC3)n2C2CC2)cc1 (stereo not drawn) |  | -2.73 | 3.26 µM [rising, single point]
Cc1cccnc1Nc1nc(-c2ccc(O)c(O)c2)cs1 | 20.6 µM [falling, single point] | -149 | 
COc1cc(OC)cc(C(=O)Nc2ccc(Nc3ccccc3)cc2)c1 |  | -3.88 | 29.1 µM [rising, single point]
COc1c(C(O)CC(C)C)ccc2c1C(=O)OCc1cc(C)cc(O)c1O2 (stereo not drawn) |  | -9 | 0.291 µM [falling, full curve, poor fit]

Source: PubChem BioAssay AID2685 (National Center for Advancing Translational Sciences (NCATS), 2010)
